Test results taken from the supplement of paper PMC11732987, “Enantioselective OTUD7B fragment discovery through chemoproteomics screening and high-throughput optimisation” (Communications Chemistry, 2025).
The list shows a part of the results. The data scatter; read single values as rough.

The chains behind the UniProt entries cited, without tags or fusion partners. Where a name states a change or a piece, a line headed by the entry shows the natural chain unless it says otherwise. Residues count along the entry.
UniProt Q86VP1, whole entry, looked up: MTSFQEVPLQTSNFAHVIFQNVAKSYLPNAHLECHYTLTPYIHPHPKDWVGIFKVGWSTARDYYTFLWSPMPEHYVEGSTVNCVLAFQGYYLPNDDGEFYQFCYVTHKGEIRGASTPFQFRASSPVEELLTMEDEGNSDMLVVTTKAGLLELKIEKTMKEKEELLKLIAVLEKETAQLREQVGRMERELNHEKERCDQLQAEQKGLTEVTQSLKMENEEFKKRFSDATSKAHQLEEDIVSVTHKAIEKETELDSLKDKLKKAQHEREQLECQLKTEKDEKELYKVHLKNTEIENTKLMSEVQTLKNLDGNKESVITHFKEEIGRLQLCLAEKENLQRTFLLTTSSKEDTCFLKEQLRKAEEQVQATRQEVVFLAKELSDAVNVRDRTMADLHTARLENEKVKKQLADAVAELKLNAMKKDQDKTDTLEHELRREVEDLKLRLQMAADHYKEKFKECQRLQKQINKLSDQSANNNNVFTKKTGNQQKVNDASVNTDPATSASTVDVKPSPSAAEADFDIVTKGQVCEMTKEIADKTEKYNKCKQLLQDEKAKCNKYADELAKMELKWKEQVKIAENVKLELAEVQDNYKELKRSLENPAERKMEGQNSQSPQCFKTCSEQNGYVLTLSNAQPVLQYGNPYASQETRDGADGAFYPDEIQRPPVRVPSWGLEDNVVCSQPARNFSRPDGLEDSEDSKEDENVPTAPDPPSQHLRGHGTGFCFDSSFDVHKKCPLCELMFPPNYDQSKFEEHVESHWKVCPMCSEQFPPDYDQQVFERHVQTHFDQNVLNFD
UniProt Q9UPU7: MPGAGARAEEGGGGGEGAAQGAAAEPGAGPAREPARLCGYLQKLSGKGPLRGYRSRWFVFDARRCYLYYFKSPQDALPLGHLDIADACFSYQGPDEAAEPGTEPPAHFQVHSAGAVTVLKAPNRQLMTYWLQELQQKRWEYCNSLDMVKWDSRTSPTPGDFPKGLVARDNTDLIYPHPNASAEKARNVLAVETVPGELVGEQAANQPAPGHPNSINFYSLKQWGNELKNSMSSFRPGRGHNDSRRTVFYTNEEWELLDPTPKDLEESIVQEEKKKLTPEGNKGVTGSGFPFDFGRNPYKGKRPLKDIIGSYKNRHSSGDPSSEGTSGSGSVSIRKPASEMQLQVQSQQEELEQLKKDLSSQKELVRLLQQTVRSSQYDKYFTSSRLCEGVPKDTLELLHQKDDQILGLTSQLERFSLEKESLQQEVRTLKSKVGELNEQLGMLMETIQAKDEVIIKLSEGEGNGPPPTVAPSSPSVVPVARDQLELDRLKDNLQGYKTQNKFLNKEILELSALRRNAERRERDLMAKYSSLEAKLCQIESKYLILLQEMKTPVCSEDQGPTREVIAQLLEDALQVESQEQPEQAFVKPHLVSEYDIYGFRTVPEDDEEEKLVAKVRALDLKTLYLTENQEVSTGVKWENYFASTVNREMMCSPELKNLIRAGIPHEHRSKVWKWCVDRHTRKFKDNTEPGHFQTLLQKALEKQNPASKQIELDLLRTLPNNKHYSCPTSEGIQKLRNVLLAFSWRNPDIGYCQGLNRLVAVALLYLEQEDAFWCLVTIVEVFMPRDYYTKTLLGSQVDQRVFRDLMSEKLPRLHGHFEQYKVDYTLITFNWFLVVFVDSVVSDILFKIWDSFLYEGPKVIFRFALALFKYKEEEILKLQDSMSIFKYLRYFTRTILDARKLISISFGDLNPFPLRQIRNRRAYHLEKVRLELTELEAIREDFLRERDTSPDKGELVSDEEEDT
UniProt Q86TI0: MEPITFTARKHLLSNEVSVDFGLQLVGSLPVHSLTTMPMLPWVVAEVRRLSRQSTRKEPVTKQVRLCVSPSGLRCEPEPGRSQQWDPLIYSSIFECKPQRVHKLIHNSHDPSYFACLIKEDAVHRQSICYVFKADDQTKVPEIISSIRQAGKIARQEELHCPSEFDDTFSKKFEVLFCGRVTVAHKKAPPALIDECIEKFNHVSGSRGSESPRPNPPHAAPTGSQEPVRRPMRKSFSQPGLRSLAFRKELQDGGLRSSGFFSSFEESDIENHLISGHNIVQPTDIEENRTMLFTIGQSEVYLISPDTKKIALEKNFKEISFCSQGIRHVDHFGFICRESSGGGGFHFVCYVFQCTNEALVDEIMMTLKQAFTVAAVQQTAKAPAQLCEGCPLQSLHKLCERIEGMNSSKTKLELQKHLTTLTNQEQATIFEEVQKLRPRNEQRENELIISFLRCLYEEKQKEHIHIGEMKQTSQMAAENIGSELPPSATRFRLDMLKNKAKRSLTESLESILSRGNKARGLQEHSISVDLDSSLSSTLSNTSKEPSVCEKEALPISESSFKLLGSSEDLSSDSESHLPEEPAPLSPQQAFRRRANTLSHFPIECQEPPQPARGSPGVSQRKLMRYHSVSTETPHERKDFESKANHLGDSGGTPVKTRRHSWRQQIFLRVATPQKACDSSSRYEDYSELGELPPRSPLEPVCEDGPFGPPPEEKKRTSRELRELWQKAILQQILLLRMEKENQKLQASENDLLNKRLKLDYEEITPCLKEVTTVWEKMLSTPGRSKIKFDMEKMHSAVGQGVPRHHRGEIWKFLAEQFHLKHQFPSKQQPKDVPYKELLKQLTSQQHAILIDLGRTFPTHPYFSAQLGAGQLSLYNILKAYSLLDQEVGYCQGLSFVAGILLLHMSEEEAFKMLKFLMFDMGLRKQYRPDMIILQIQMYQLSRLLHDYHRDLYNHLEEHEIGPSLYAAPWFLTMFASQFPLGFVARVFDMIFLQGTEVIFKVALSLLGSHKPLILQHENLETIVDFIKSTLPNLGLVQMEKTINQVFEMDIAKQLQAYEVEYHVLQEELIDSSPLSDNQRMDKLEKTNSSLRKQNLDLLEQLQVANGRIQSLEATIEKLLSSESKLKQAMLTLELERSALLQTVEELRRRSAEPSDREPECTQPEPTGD
UniProt P17987, whole entry, looked up: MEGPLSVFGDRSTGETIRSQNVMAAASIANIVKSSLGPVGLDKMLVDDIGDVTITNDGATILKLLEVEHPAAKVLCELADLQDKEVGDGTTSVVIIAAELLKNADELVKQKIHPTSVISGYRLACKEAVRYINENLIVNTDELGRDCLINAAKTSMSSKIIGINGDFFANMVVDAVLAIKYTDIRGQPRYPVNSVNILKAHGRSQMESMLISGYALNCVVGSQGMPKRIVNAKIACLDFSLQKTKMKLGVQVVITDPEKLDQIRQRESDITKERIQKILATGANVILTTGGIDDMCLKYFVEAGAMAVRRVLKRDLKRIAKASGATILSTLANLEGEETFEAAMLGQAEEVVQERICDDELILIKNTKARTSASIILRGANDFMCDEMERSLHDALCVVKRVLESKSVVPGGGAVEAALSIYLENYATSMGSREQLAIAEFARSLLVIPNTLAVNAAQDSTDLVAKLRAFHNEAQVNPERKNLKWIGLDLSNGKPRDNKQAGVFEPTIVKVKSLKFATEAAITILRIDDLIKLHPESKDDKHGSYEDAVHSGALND
UniProt Q9Y6I9: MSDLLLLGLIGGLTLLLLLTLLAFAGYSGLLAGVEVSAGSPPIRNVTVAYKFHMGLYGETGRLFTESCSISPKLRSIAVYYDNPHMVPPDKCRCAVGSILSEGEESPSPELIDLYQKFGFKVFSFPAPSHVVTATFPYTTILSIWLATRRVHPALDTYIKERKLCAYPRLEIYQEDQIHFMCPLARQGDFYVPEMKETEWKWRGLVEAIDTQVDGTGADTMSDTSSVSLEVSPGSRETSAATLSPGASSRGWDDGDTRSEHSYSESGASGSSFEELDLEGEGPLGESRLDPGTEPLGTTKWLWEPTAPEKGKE
UniProt P62380: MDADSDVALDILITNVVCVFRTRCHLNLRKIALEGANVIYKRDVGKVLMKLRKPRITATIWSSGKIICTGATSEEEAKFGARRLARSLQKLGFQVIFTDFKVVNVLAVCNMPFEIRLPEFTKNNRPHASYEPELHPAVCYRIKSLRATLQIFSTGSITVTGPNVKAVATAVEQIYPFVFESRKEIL
UniProt Q9NXG2: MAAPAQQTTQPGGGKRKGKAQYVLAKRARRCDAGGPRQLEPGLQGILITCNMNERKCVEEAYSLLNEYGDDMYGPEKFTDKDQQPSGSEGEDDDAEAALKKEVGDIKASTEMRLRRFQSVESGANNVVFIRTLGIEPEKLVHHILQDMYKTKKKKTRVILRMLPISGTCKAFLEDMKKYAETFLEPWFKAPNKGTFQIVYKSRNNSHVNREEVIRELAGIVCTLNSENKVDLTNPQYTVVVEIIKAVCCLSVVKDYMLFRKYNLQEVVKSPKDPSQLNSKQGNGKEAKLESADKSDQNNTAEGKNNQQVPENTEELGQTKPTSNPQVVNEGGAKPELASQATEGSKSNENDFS
UniProt Q9UK61: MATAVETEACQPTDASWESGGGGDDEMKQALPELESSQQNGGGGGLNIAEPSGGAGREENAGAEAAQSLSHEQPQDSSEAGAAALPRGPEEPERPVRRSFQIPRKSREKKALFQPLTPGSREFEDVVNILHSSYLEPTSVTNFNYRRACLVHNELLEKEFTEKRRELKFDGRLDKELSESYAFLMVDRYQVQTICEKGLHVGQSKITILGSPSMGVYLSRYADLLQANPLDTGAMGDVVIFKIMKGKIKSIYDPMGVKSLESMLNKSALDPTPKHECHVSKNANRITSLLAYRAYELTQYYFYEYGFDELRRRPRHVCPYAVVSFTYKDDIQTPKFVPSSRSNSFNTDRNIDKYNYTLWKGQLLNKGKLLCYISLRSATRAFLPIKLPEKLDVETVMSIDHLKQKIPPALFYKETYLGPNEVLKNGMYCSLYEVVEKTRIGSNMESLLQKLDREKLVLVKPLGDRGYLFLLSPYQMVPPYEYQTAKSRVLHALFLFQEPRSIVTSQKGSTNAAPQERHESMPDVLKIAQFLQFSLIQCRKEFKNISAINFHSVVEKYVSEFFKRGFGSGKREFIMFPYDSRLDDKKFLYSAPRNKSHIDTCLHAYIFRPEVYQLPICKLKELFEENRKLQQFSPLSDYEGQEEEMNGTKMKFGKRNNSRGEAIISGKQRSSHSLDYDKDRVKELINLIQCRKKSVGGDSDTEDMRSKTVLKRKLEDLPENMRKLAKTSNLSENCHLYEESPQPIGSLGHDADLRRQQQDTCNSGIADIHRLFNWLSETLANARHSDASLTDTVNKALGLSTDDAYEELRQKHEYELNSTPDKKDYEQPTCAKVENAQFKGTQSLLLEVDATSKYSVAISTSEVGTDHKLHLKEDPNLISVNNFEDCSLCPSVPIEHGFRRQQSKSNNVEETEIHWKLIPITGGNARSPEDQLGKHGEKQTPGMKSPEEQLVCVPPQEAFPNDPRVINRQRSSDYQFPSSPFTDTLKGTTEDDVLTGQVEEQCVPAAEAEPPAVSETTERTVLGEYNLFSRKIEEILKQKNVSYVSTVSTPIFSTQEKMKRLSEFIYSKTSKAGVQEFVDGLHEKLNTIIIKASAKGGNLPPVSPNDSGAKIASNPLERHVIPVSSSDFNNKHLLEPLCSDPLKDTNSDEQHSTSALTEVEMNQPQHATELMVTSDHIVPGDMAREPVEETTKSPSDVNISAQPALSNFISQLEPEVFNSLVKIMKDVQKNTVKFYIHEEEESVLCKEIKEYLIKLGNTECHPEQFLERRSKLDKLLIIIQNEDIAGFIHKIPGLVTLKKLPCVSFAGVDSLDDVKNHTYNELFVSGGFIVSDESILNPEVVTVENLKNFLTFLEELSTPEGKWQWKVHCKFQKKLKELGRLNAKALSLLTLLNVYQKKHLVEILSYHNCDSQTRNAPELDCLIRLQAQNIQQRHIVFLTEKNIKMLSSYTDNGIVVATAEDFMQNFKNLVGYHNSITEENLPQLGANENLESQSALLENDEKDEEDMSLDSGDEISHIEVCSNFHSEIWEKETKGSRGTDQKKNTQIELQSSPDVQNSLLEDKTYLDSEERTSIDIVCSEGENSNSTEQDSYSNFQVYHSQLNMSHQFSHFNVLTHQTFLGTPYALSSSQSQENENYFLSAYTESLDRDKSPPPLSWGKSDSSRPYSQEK
UniProt Q86W42: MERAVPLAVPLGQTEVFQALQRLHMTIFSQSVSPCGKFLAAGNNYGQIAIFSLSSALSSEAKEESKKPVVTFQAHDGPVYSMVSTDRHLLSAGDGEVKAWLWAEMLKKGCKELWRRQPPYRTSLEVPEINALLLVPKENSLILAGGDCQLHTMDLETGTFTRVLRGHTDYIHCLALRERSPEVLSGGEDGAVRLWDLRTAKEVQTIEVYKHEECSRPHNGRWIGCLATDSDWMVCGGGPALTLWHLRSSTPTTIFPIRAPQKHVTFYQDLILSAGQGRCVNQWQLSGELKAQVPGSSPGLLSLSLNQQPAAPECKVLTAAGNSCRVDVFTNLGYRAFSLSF
UniProt O95359, 2566-2590: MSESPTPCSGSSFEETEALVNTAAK

compound: ClCC(=O)N[C@@H]1CCCc2ccccc12; experiment: log2 mean competition ratio of IA-DTB cysteine labelling (DMSO/compound) (log2 ratio); higher = stronger cysteine engagement by compound; conditions: 50 µM; treatment time: 4 h; cell line lysate: HEK293T
Experimental: (§1)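 IA-DTB competitive cysteine chemoproteomics in HEK293T RIPA lysate. Lysates were treated with compound 29 or 30 at 50 or 200 µM for 4 h, then IA-DTB (500 µM, 1 h), trypsin-digested, NeutrAvidin-enriched and analysed by diaPASEF. Competition ratio = intensity DMSO / intensity compound (n=4 treated, n=64 DMSO); binding: mean log2 CR ≥ 1 and p ≤ 0.05 plus QC filters. Target is the cysteine site.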

Target	log2 mean competition ratio
TAX1BP1 C350 (UniProt Q86VP1)	-0.223
TBC1D2B C38 (UniProt Q9UPU7)	0.0101
TBC1D2B C651 (UniProt Q9UPU7)	-0.043
TDP1 C48 (UniProt Q9NUW8)	0.125
TCEAL5;TCEAL6;TCEAL3 C149;(C143);(C143)	0.00883
TBC1D1 C67 (UniProt Q86TI0)	0.112
TCP1 C397 (UniProt P17987)	0.0268
TEX264 C68 (UniProt Q9Y6I9)	-0.0698
TET2 C332 (UniProt Q6N021)	0.0467
TARS3 C74	0.0584
TCF7 C291	0.0166
TBPL1 C68 (UniProt P62380)	0.223
THUMPD1 C31 (UniProt Q9NXG2)	-0.148
TASOR C1421 (UniProt Q9UK61)	-0.136

same assay, conditions: 200 µM; treatment time: 4 h; cell line lysate: HEK293T

Target	log2 mean competition ratio
TAX1BP1 C350 (UniProt Q86VP1)	0.159
TBC1D2B C38 (UniProt Q9UPU7)	0.153
TBC1D2B C651 (UniProt Q9UPU7)	0.0989
TDP1 C48 (UniProt Q9NUW8)	0.116
TCEAL5;TCEAL6;TCEAL3 C149;(C143);(C143)	0.134
TBC1D1 C67 (UniProt Q86TI0)	0.273
TCP1 C397 (UniProt P17987)	-0.428
TEX264 C68 (UniProt Q9Y6I9)	-0.0676
THOC6 C279 (UniProt Q86W42)	-0.117
TET2 C332 (UniProt Q6N021)	0.0666
TARS3 C74	0.305
TCF7 C291	-0.14
TBPL1 C68 (UniProt P62380)	-0.328
THUMPD1 C31 (UniProt Q9NXG2)	0.0615
TASOR C1421 (UniProt Q9UK61)	-0.0718

compound: ClCC(=O)N[C@H]1CCCc2ccccc12; experiment: as above; conditions: 50 µM; treatment time: 4 h; cell line lysate: HEK293T
Experimental: as §1

Target	log2 mean competition ratio
TIGAR C114 (UniProt Q9NQ88)	0.168
TAX1BP1 C350 (UniProt Q86VP1)	-0.17
TBC1D2B C38 (UniProt Q9UPU7)	0.637
TBC1D2B C651 (UniProt Q9UPU7)	-0.0714
TBC1D13 C36 (UniProt Q9NVG8)	0.145
TDP1 C48 (UniProt Q9NUW8)	0.158
TCEAL5;TCEAL6;TCEAL3 C149;(C143);(C143)	-0.0349
TICRR C174 (UniProt Q7Z2Z1)	0.219
TANC1 C1808 (UniProt Q9C0D5)	0.199
TBP C221 (UniProt P20226)	0.00789
TBC1D4 C906 (UniProt O60343)	-0.281
TBC1D10A C324 (UniProt Q9BXI6)	0.0373
TET2 C353 (UniProt Q6N021)	0.0548
TBC1D1 C67 (UniProt Q86TI0)	-0.396
TCP1 C397 (UniProt P17987)	0.579
TBCEL C121 (UniProt Q5QJ74)	-0.342
TAF8 C80	0.139
TBL2 C367 (UniProt Q9Y4P3)	-0.0564
TEX264 C68 (UniProt Q9Y6I9)	-0.626

Target	log2 mean competition ratio
THOC6 C279 (UniProt Q86W42)	-0.141
TICRR C1626 (UniProt Q7Z2Z1)	0.253
SYP C87 (UniProt P08247)	0.218
TACC2 C2573 (UniProt O95359)	0.51
TET2 C1811 (UniProt Q6N021)	0.243
THOC5 C208 (UniProt Q13769)	-0.116
TBCA C67	0.297
TECPR1 C84 (UniProt Q7Z6L1)	-0.134
TACC3 C662	0.245
TET2 C332 (UniProt Q6N021)	0.199
TARS3 C74	0.0471
TCF7 C291	0.111
TBPL1 C68 (UniProt P62380)	-0.146
TBCE C371 (UniProt Q15813)	-0.257
TET1 C1881 (UniProt Q8NFU7)	0.273
TDP2 C6 (UniProt O95551)	-0.0675
THUMPD1 C31 (UniProt Q9NXG2)	-0.176
TASOR C1421 (UniProt Q9UK61)	-0.2

same assay, conditions: 200 µM; treatment time: 4 h; cell line lysate: HEK293T

Target	log2 mean competition ratio
TIGAR C114 (UniProt Q9NQ88)	0.0359
TAX1BP1 C350 (UniProt Q86VP1)	0.144
TBC1D2B C38 (UniProt Q9UPU7)	0.322
TBC1D2B C651 (UniProt Q9UPU7)	-0.0787
TBC1D13 C36 (UniProt Q9NVG8)	-0.192
TDP1 C48 (UniProt Q9NUW8)	0.214
TCEAL5;TCEAL6;TCEAL3 C149;(C143);(C143)	0.281
TICRR C174 (UniProt Q7Z2Z1)	0.209
TANC1 C1808 (UniProt Q9C0D5)	0.00378
TBP C221 (UniProt P20226)	0.122
TBC1D4 C906 (UniProt O60343)	-0.0392
TBC1D10A C324 (UniProt Q9BXI6)	0.335
TET2 C353 (UniProt Q6N021)	-0.331
TBC1D1 C67 (UniProt Q86TI0)	0.407
TCP1 C397 (UniProt P17987)	-0.377
TBCEL C121 (UniProt Q5QJ74)	-0.2
TAF8 C80	-0.0365
TBL2 C367 (UniProt Q9Y4P3)	-0.0834
TEX264 C68 (UniProt Q9Y6I9)	-0.125

Target	log2 mean competition ratio
THOC6 C279 (UniProt Q86W42)	-0.0421
TICRR C1626 (UniProt Q7Z2Z1)	0.229
SYP C87 (UniProt P08247)	0.0496
TACC2 C2573 (UniProt O95359)	-0.098
TET2 C1811 (UniProt Q6N021)	-0.0769
THOC5 C208 (UniProt Q13769)	-0.128
TBCA C67	0.00176
TECPR1 C84 (UniProt Q7Z6L1)	-0.117
TACC3 C662	-0.146
TET2 C332 (UniProt Q6N021)	0.0264
TARS3 C74	0.327
TCF7 C291	0.00497
TBPL1 C68 (UniProt P62380)	-0.0436
TBCE C371 (UniProt Q15813)	-0.261
TET1 C1881 (UniProt Q8NFU7)	0.166
TDP2 C6 (UniProt O95551)	0.174
THUMPD1 C31 (UniProt Q9NXG2)	0.1
TASOR C1421 (UniProt Q9UK61)	0.0322
